Here are results for 21 compounds from PMC12040169 (PLOS Biology, 2025).

The other results are listed elsewhere or left out.

The assay relates to T1, CTL2-GFP (C. trachomatis L2/434/Bu, GFP-expressing).
T1 construct: L2/434/Bu, GFP-expressing
Also on record: species or system HeLa; Intracellular C. trachomatis growth in HeLa cells, bulk GFP fluorescence relative to DMSO. Particulars: bulk GFP, single well; 28.5 h, 10 µM; inhibitor.
In the case of `O=C(CO)N1CC2(CCN(Cc3ccc(OC(F)(F)F)cc3)CC2)c2ccccc21` [CBK131493], the “% of control remaining” value is given as 100.106%.

Regarding `C=CCN1C(=O)CC2(C1=O)C(=O)N(CCCN(C)S(C)(=O)=O)c1ccc(Cl)cc12` (stereo not drawn) [CBK075432], the “% of control remaining” value worked out at 135.777%.

As for `CCCC(=O)N(C)C1CCC2(CC1)CNC(=O)c1cc(C)ccc1O2` (stereo not drawn) [CBK281694], the “% of control remaining” value came out at 128.063%.

For the compound `Cc1nn(C(C)C)c(C)c1CN1CCC(c2c(C(=O)NC(C)C)sc3ccccc23)C1` (stereo not drawn) [CBK285890], the “% of control remaining” value turned out to be 123.219%.

As to `CCOc1cc([N+](=O)[O-])cc(C=O)c1OC(C)C(=O)O` (stereo not drawn) [CBK264642], the “% of control remaining” value is 125.86%.

Regarding `O=C(Nc1cccc(F)c1)N1CCC(Cc2cccnc2)CC1` [CBK306369], the “% of control remaining” value is recorded as 121.24%.

For `Cc1ccc(/C(N)=N/OC(=O)COc2cccc3ccccc23)cc1` [CBK263009], the “% of control remaining” value came out at 112.138%.

Regarding `O=C(NCC(F)(F)F)c1ccc(-c2ccccc2)nc1NCc1cccnc1` [CBK076551], the “% of control remaining” value amounted to 148.879%.

Turning to `Cc1ccc(NC(=O)CN2C(=O)S/C(=C\c3ccc4c(c3)n(C)c(=O)n4C)C2=O)cc1` [CBK264501], the “% of control remaining” value was 102.864%.

For `CC(Sc1nc(-c2ccccc2)nc2ccccc12)C(=O)Nc1ccccc1C(F)(F)F` (stereo not drawn) [CBK265795], the “% of control remaining” value came out at 122.211%.

In the case of `O=C(NCc1ccccc1)C1(c2ccccc2)CCCC1` [CBK149540], the “% of control remaining” value came out at 168.469%.

`c1ccc(Cn2cc(-c3nccnc3OC3CCCCC3)cn2)cc1` [CBK107092]: the “% of control remaining” value stood at 143.391%.

Regarding `O=C(NCCN1CCOCC1)N1CCN(CCc2ccccc2)CC1` [CBK158908], the “% of control remaining” value amounted to 131.821%.

With `Nc1cccc(-c2cc(C(=O)NCCc3cccnc3)cnc2-c2ccc(F)cc2)c1` [CBK038016], the “% of control remaining” value was determined as 145.263%.

Regarding `COc1cc(C(C)=O)ccc1OCCCN1CCC(O)(C(=O)c2cccc(C(F)(F)F)c2)CC1` [CBK024866C], the “% of control remaining” value was found to be 112.925%.

As for `CCCC/C=C/c1cncc(NCCO)n1` [CBK065419], the “% of control remaining” value came out at 180.199%.

On to `CC1=C(C(=O)OC(C)C)C(c2cccc(I)c2)C2=C(CCCC2=O)N1` (stereo not drawn) [CBK026317], for which the “% of control remaining” value is on record as 135.258%.

With `COc1cccc(C(=O)C2=C(O)C(=O)N(CCCn3ccnc3)C2c2cccc(F)c2)c1` (stereo not drawn) [CBK266419], the “% of control remaining” value is listed as 112.671%.

Regarding `Cc1ccc(Cn2ncc3c(NCCCN4CCOCC4)ncnc32)cc1` [CBK077470], the “% of control remaining” value is 100%.

Consider `Cc1cc(N2CCN(c3ccc(O)cc3)CC2)n2nc(-c3nccn3C)cc2n1` [CBK286188], for which the “% of control remaining” value is given as 132.472%.

With `Cc1cccc(NC(=S)NNC(=O)CCC(=O)O)c1` [CBK261542], the “% of control remaining” value came to 100%.
